Record: PubChem BioAssay AID652259 (Drosophila RNAi Screening Center, 2013)
Test: 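Identify new Wingless signalling regulators in fly cells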 (primary screen). System: Drosophila clone 8 imaginal disc epithelial cells. Reagent: long dsRNA against Drosophila genes. Conditions: pathway stimulated by co-transfected Wingless expression plasmid. Detection: 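Dual luciferase reads per well after Wingless plasmid stimulation: reporter firefly light and Renilla control light; activity is firefly divided by Renilla, a ratio not deposited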. Reading the numbers: firefly reporter light: higher = more Wg reporter light, before normalisation; Renilla control light: higher = more transfected or surviving cells. Call rule: 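a knock-down is a candidate when at least two out of four statistical tests show it departing from its plate mean; one test alone signals a weak candidate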. Calls: active = candidate regulator (raises or lowers reporter); inactive = not a candidate.
The deposit covers about 22,000 reagents; below is an unselected part of those that have a named target and a result. Over the whole deposit, 233 (1.1%) got an active call. 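Light values are raw, unnormalised plate reads; the ratio scores behind the reporter calls were not deposited.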 Unmarked entries are inactive. Reagents against one gene are numbered here. A plus sign joins genes that one reagent is predicted to hit. The record does not give: the amount of reagent, the time to read-out, the dose of the treatment.

| predicted target | reagent no. | reporter change call, replicate 1 | firefly reporter light, replicate 1 | firefly reporter light, replicate 2 | Renilla control light, replicate 1 | Renilla control light, replicate 2 |
| --- | --- | --- | --- | --- | --- | --- |
| mRpL28 (mitochondrial ribosomal protein L28) | 1 | – | 3532 | 7497 | 828 | 2346 |
| Sp1 | 1 | – | 3427 | – | 1218 | – |
| Sp1 | 2 | – | 24000 | – | 9065 | – |
| CG13733 | 1 | – | 5317 | – | 2397 | – |
| Cul2 (Cullin 2) | 1 | – | 7957 | – | 1932 | – |
| Mct1 (Monocarboxylate transporter 1) | 1 | – | 12456 | – | 9585 | – |
| Ifrd1 (Interferon-related developmental regulator 1) | 1 | – | 3569 | 6664 | 1370 | 1509 |
| Ifrd1 (Interferon-related developmental regulator 1) | 2 | – | 2905 | 8402 | 1533 | 2128 |
| mrn (marionette) | 1 | – | 8353 | – | 966 | – |
| CG11437 | 1 | – | 22934 | – | 7540 | – |
| CG13711 | 1 | Wg reporter activity lowered | 560 | 3050 | 848 | 2261 |
| Ir47a (Ionotropic receptor 47a) | 1 | – | 1917 | 6950 | 524 | 2791 |
| CG43146 (retired record) | 1 | – | 3552 | – | 1513 | – |
| CG30403 | 1 | – | 4720 | 3018 | 1106 | 976 |
| AOX3 (Aldehyde oxidase 3) | 1 | – | 8891 | – | 4075 | – |
| Dred (Dctn1-related) | 1 | – | 15421 | – | 6497 | – |
| Dred (Dctn1-related) | 2 | – | 4075 | – | 1457 | – |
| CG44836 | 1 | – | 6992 | – | 3153 | – |
| FoxP (Forkhead box P) | 1 | – | 12995 | – | 2823 | – |
| FoxP (Forkhead box P) | 2 | – | 3.67e5 | 4.40e5 | 1.53e5 | 1.91e5 |
| CG43446 | 1 | – | 2477 | – | 1373 | – |
| CG3788 | 1 | – | 2600 | 10049 | 804 | 3468 |
| S2P (site-2 protease) | 1 | – | 6569 | – | 2018 | – |
| upd3 (unpaired 3) | 1 | – | 22984 | – | 10328 | – |
| upd3 (unpaired 3) | 2 | – | 24711 | – | 10621 | – |
| upd3 (unpaired 3) | 3 | – | 5.65e5 | 5.26e5 | 1.61e5 | 1.58e5 |
| CG13426 | 1 | – | 7829 | – | 2400 | – |
| CG13674 | 1 | – | 2539 | 13475 | 2368 | 6064 |
| CG1537 | 1 | – | 24608 | – | 11740 | – |
| Acp33A + CG15841 (retired record) | 1 | – | 2166 | 8696 | 803 | 4326 |
| Gle1 (Gle1 RNA export mediator) | 1 | – | 9899 | – | 2633 | – |

Next part (7 carried over from the part before).
| predicted target | reagent no. | reporter change call, replicate 1 | firefly reporter light, replicate 1 | firefly reporter light, replicate 2 | Renilla control light, replicate 1 | Renilla control light, replicate 2 |
| --- | --- | --- | --- | --- | --- | --- |
| upd3 (unpaired 3) | 2 | – | 24711 | – | 10621 | – |
| upd3 (unpaired 3) | 3 | – | 5.65e5 | 5.26e5 | 1.61e5 | 1.58e5 |
| CG13426 | 1 | – | 7829 | – | 2400 | – |
| CG13674 | 1 | – | 2539 | 13475 | 2368 | 6064 |
| CG1537 | 1 | – | 24608 | – | 11740 | – |
| Acp33A + CG15841 (retired record) | 1 | – | 2166 | 8696 | 803 | 4326 |
| Gle1 (Gle1 RNA export mediator) | 1 | – | 9899 | – | 2633 | – |
| CG15160 | 1 | – | 4774 | 10499 | 912 | 4535 |
| CG31007 | 1 | – | 2851 | – | 1476 | – |
| FarO (Fatty acyl-CoA reductase in oenocytes) | 1 | – | 30176 | – | 18281 | – |
| RhoGAP18B (Rho GTPase activating protein at 18B) | 1 | – | 14816 | – | 9218 | – |
| RhoGAP18B (Rho GTPase activating protein at 18B) | 2 | – | 14960 | – | 8966 | – |
| RhoGAP18B (Rho GTPase activating protein at 18B) | 3 | – | 21059 | – | 7225 | – |
| RhoGAP18B (Rho GTPase activating protein at 18B) | 4 | – | 23331 | – | 9051 | – |
| CG9664 | 1 | – | 11280 | – | 5717 | – |
| Cnx99A + Cnx14D | 1 | – | 5037 | – | 1943 | – |
| Spn28F (Serpin 28F) | 1 | – | 2454 | 6613 | 992 | 3091 |
| Ir25a (Ionotropic receptor 25a) | 1 | – | 3200 | 6224 | 1032 | 2297 |
| sky (skywalker) | 1 | – | 14624 | – | 4250 | – |
| sky (skywalker) | 2 | – | 10370 | – | 3736 | – |
| sky (skywalker) | 3 | – | 2490 | 7571 | 1002 | 2720 |
| Not3 (CCR4-NOT transcription complex subunit 3) | 1 | – | 17958 | – | 2321 | – |
| CG4607 | 1 | – | 17429 | – | 9411 | – |
| Ir11a (Ionotropic receptor 11a) | 1 | – | 22663 | – | 9602 | – |
| Elo68alpha (Elongase 68alpha) | 1 | – | 6.41e5 | 6.69e5 | 2.56e5 | 90153 |
| BthD (BthD selenoprotein) | 1 | – | 23576 | – | 11574 | – |
| WDR79 (WD repeat domain 79) | 1 | – | 7485 | – | 3600 | – |
| TotZ (Turandot Z) | 1 | – | 3113 | – | 1500 | – |
| CG10418 | 1 | – | 9076 | – | 2508 | – |
| CG5756 | 1 | – | 4883 | – | 2240 | – |
| CG10950 | 1 | – | 4680 | – | 2341 | – |
| Tep3 (Thioester-containing protein 3) | 1 | – | 2728 | 9520 | 290 | 3145 |
| St3 (Sulfotransferase 3) | 1 | – | 4149 | 10745 | 612 | 2211 |
| St3 (Sulfotransferase 3) | 2 | – | 13482 | – | 3344 | – |
| Spase22-23 (Spase 22/23-subunit) | 1 | – | 14780 | – | 13632 | – |
| Ugt307A1 (UDP-glycosyltransferase family 307 member A1) | 1 | – | 1932 | 6624 | 876 | 3156 |
| CenB1A (Centaurin beta 1A) | 1 | – | 27223 | 7.49e5 | 26547 | 3.52e5 |
| ringer (ringmaker) | 1 | – | 4513 | – | 2641 | – |
| Oatp33Ea (Organic anion transporting polypeptide 33Ea) | 1 | – | 6312 | – | 2632 | – |
| Octbeta1R (Octopamine beta1 receptor) | 1 | – | 43827 | – | 8908 | – |
| Tep5Psi (Thioester-containing protein 5 pseudogene) | 1 | – | 3314 | 5920 | 804 | 2823 |
| Tep5Psi (Thioester-containing protein 5 pseudogene) | 2 | – | 2903 | 5876 | 928 | 2070 |
| CG14797 | 1 | – | 23988 | – | 12964 | – |
| elB (elbow B) | 1 | – | 3949 | 9386 | 1565 | 4433 |
| Ugt302K1 (UDP-glycosyltransferase family 302 member K1) | 1 | – | 20604 | – | 6224 | – |
| Gpo1 (Glycerophosphate oxidase 1) | 1 | – | 16745 | – | 4870 | – |
| eIF3b (eukaryotic translation initiation factor 3 subunit b) | 1 | – | 6545 | – | 1772 | – |
| CG10237 | 1 | – | 14272 | – | 5194 | – |
| gzl (godzilla E3 ubiquitin protein ligase) | 1 | – | 5331 | – | 2928 | – |
